Assay results taken from patent US20040072170A1.
No constants are given. Whether binding was seen depends on the method and setting. Some entries that bind do so weakly or less than the wild type.

Chains of the proteins cited; added tags and fusions are not shown. Lines headed by an entry give the natural chain unless they say otherwise; changes in a name come on top.
UniProt O75400: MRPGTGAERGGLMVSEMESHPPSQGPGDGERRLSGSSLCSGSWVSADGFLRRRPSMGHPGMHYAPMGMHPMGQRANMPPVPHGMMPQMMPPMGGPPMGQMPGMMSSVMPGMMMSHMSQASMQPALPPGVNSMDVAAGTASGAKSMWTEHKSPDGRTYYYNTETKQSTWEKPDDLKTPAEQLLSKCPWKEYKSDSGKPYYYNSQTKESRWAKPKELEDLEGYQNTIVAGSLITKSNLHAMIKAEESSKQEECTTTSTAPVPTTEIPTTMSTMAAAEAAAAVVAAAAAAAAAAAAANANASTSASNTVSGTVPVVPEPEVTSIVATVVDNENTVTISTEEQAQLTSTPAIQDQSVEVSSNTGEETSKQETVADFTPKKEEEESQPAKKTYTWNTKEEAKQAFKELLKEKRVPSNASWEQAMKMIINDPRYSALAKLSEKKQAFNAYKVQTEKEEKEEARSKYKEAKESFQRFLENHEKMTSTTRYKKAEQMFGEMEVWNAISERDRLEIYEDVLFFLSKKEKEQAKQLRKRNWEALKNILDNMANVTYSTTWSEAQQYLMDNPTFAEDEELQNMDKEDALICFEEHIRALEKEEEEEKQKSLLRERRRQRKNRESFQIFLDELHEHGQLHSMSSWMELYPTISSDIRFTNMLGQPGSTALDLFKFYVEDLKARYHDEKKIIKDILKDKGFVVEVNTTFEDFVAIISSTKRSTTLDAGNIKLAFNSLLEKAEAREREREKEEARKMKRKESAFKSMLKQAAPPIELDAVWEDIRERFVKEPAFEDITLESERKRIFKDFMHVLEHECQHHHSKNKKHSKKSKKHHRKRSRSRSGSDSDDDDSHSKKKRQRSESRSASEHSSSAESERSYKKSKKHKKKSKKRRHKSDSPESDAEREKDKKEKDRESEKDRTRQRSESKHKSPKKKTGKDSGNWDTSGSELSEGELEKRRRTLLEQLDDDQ
UniProt P06732: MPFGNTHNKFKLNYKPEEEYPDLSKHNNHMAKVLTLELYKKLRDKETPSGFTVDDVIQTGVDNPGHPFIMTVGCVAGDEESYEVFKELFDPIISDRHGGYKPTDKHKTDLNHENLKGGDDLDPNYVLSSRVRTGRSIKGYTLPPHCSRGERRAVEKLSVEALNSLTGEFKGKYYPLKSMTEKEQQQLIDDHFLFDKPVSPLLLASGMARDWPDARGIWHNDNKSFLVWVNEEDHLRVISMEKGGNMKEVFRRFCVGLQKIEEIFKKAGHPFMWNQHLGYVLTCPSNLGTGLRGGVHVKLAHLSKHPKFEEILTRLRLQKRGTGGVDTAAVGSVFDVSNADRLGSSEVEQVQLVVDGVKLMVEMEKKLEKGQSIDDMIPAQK

How the values were obtained:
[1] = target: FBP (AF049528) (UniProt O75400); assay: yeast two-hybrid 40K interaction matrix (mating, growth and β-galactosidase)
[2] = target: c-Raf (P04049) (UniProt P04049); assay: as above

AAA52025, muscle isoform of creatine kinase (creatine kinase M) (from UniProt P06732 1-381) (enzyme)
binding [1]: binds | binding [2]: binds
